Values from PubChem BioAssay AID504786 (Drosophila RNAi Screening Center, 2011).

Purpose: 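Positive regulators of HIF-driven reporter output in Drosophila cells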 (primary screen)
Cells: Drosophila S2 cells with a stable HIF luciferase reporter
Reagents: long dsRNA against Drosophila genes, about 0.2 µg dsRNA per well of a 384-well plate
Timing: three days of knock-down, then 20 h of DFO before reading
Conditions: desferrioxamine (DFO) at 100 µM, an iron chelator that mimics hypoxia, for 20 h
Measured: 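HIF reporter luminescence in cells given 100 µM DFO for 20 h, using the mouse ldh-a hypoxia-response element, scored as per-plate z-scores; higher means greater loss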
Reading the numbers: z-score: higher = stronger loss of HIF reporter signal
The screen tested about 21,000 reagents; shown is an unselected part of those with a known target gene and a result. 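Primary screen; positive scores mean lost reporter signal, so the sign may be inverted from the usual convention.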 A plus sign joins genes that one reagent is predicted to hit.

| Gene | amplicon | z-score, replicate 1 | z-score, replicate 2 | z-score, replicate 3 | z-score, replicate 4 |
| --- | --- | --- | --- | --- | --- |
| SC35 (SR family splicing factor SC35) | DRSC02502 | 5.7 | 2.1 | – | – |
| SC35 (SR family splicing factor SC35) | DRSC03425 | -0.3 | 0.7 | – | – |
| ng4 (new glue 4) | DRSC18805 | -0.4 | -0.4 | – | – |
| Map205 (Microtubule-associated protein 205) | DRSC16732 | -0.2 | -0.5 | – | – |
| CG6912 | DRSC16132 | 0 | -0.7 | – | – |
| CG14868 | DRSC14991 | -0.5 | -0.3 | – | – |
| slim (scruin like at the midline) | DRSC06921 | -0.3 | -0.3 | – | – |
| CG7133 | DRSC11798 | -0.3 | -0.5 | – | – |
| Ptp36E (Protein tyrosine phosphatase 36E) | DRSC03021 | 0.7 | -0.1 | – | – |
| CG11882 | DRSC14425 | 0.2 | 1.1 | – | – |
| CG42337 | DRSC11686 | -0.2 | -0.5 | – | – |
| CG42337 | DRSC11687 | 2.6 | -0.2 | – | – |
| SmydA-2 (SET and MYND domain containing, arthropod-specific, member 2) | DRSC10296 | -0.2 | -0.2 | – | – |
| l(3)mbn (lethal (3) malignant blood neoplasm) | DRSC08793 | 0.1 | -0.2 | – | – |
| Ugt303B3 (UDP-glycosyltransferase family 303 member B3) | DRSC14199 | -0.1 | 0.9 | – | – |
| PGRP-SA (Peptidoglycan recognition protein SA) | DRSC19420 | -0.3 | 0.2 | – | – |
| akirin | DRSC11000 | 3.3 | 3.1 | – | – |
| Alr (Augmenter of liver regeneration) | DRSC19469 | 0.3 | 0.4 | – | – |
| Atg5 (Autophagy-related 5) | DRSC18112 | -0.4 | -0.4 | – | – |
| Shab (Shaker cognate b) | DRSC08013 | -0.3 | -0.6 | – | – |
| Shab (Shaker cognate b) | DRSC08643 | -0.5 | -0.4 | – | – |
| Shab (Shaker cognate b) | DRSC08699 | 0 | 0.3 | – | – |
| CG15651 | DRSC04242 | -0.4 | -0.6 | – | – |
| CG14949 | DRSC08408 | -0.4 | -0.3 | – | – |
| Vta1 (Vesicle trafficking 1) | DRSC08604 | -0.4 | -0.5 | -0.1 | 0 |
| CG13901 | DRSC08371 | -0.2 | -0.5 | – | – |
| CG34112 | DRSC12235 | -0.3 | -0.8 | – | – |
| stw (straw) | DRSC04842 | -0.1 | -0.3 | – | – |
| stw (straw) | DRSC04843 | -0.1 | -0.4 | – | – |
| trpl (transient receptor potential-like) | DRSC06728 | -0.4 | -0.5 | – | – |
| trpl (transient receptor potential-like) | DRSC06729 | -0.1 | -0.1 | – | – |
| CG12134 | DRSC06109 | -0.3 | 0.2 | – | – |
| CG12659 | DRSC17862 | -0.3 | -0.9 | – | – |
| CG14762 | DRSC05073 | -0.1 | -0.1 | – | – |
| CG14762 | DRSC06496 | -0.3 | -0.3 | – | – |
| RpL39 (Ribosomal protein L39) | DRSC04651 | 6 | 7 | – | – |
| Arpc3B (Actin-related protein 2/3 complex, subunit 3B) | DRSC20126 | 1.2 | 1.2 | – | – |
| CG3546 | DRSC18308 | -0.4 | -0.5 | – | – |
| CG5116 | DRSC15720 | 0.6 | -0.3 | – | – |
| Mabi (Mabiki) | DRSC02489 | -0.4 | -0.4 | – | – |
| CG5065 | DRSC06912 | -0.2 | -0.6 | – | – |
| CG8907 | DRSC16453 | -0.2 | -0.4 | – | – |
| SCCRO (Squamous cell carcinoma-related oncogene) | DRSC10844 | -0.3 | 0.5 | – | – |
| CG14380 | DRSC14840 | -0.2 | -0.4 | – | – |
| CARPB (Carbonic anhydrase-related protein B) | DRSC18437 | -0.4 | -0.4 | – | – |
| CARPB (Carbonic anhydrase-related protein B) | DRSC18438 | -0.3 | -0.8 | – | – |
| Mkk4 (MAP kinase kinase 4) | DRSC16739 | -0.2 | 0.6 | – | – |
| CG11313 | DRSC14295 | -0.3 | 0.1 | – | – |
| Srlp (Spliceosome-ribosome linker protein) | DRSC15890 | 2.2 | 2.5 | – | – |
| CG30395 | DRSC03896 | 0.8 | -0.1 | – | – |
| Nse1 (Non-SMC element 1) | DRSC02147 | -0.2 | -0.2 | – | – |
| bcd + CR14578 | DRSC20984 | -0.8 | 0.6 | – | – |
| edin (elevated during infection) | DRSC09488 | -0.5 | 0.6 | – | – |
| CG18539 | DRSC06766 | -0.4 | -0.8 | – | – |
| RhoGAP18B (Rho GTPase activating protein at 18B) | DRSC19763 | -0.6 | -0.8 | – | – |
| RhoGAP18B (Rho GTPase activating protein at 18B) | DRSC20047 | -0.6 | -0.8 | – | – |
| RhoGAP18B (Rho GTPase activating protein at 18B) | DRSC20048 | -0.7 | -1.1 | – | – |
| RhoGAP18B (Rho GTPase activating protein at 18B) | DRSC20049 | 0.1 | 0.3 | – | – |

Reprinted from the entries so far (6 entries):
| Gene | amplicon | z-score, replicate 1 | z-score, replicate 2 | z-score, replicate 3 | z-score, replicate 4 |
| --- | --- | --- | --- | --- | --- |
| CG42337 | DRSC11686 | -0.2 | -0.5 | – | – |
| CG42337 | DRSC11687 | 2.6 | -0.2 | – | – |
| SmydA-2 (SET and MYND domain containing, arthropod-specific, member 2) | DRSC10296 | -0.2 | -0.2 | – | – |
| l(3)mbn (lethal (3) malignant blood neoplasm) | DRSC08793 | 0.1 | -0.2 | – | – |
| Ugt303B3 (UDP-glycosyltransferase family 303 member B3) | DRSC14199 | -0.1 | 0.9 | – | – |
| PGRP-SA (Peptidoglycan recognition protein SA) | DRSC19420 | -0.3 | 0.2 | – | – |
